Laboratory results: PubChem BioAssay AID1508597 (Cure First, 2020)

Test: 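Genes whose silencing sensitises or protects ovarian cancer cells against rucaparib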 (primary screen)
Cells: human ovarian carcinoma lines grown from tumours: OCI-P5x (papillary serous) and OCI-C5x (clear cell)
Reagent: siRNA pool against human genes, 1.25 pmol siRNA per well
Duration: 72 h or 96 h, depending on the cell culture
Challenge: rucaparib 20 µM (about IC30) or vehicle, present until read-out
Rucaparib or vehicle: Rucaparib
Cell line: OCI-P5x (serous)
Measurement: 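ATP luminescence measured at 72 or 96 h according to the culture, then normalised and expressed as percent viability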
Scale: viability, normalised: higher = more viable cells remaining
Hit rule: 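Active when normalised viability falls below 80 percent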
Calls: active = viability under 80%; inactive = viability 80% or more
This is a random part of the about 2,100 reagents, in one setting of the screen. 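Calls flag viability under 80% in either arm, not effects specific to rucaparib; the reference for percent is not stated.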 Some reagents were tested in more than one well and are listed for each. No sequences are given here. Not stated in the record: the 100% reference.

gene knocked down | technical replicate | viability, normalised (%) | outcome
NAP1L3 | 1 | 29 | active
NAP1L3 | 2 | 37.1 | active
NAP1L3 | 3 | 47.6 | active
SIRT3 | 1 | 33.4 | active
SIRT3 | 2 | 37.2 | active
SIRT3 | 3 | 39.1 | active
FRMPD4 | 1 | 63.9 | active
FRMPD4 | 2 | 59.8 | active
FRMPD4 | 3 | 60 | active

Next part; the last 2 above are carried over.
gene knocked down | technical replicate | viability, normalised (%) | outcome
FRMPD4 | 2 | 59.8 | active
FRMPD4 | 3 | 60 | active
STK32B | 1 | 72.6 | active
STK32B | 2 | 55.4 | active
STK32B | 3 | 78.7 | active
POLG | 1 | 91.4 | inactive
POLG | 2 | 82.5 | inactive
POLG | 3 | 69.8 | active
DUT | 1 | 47.2 | active
DUT | 2 | 49 | active
DUT | 3 | 49.9 | active
PHKG2 | 1 | 85.6 | inactive
PHKG2 | 2 | 81.5 | inactive
PHKG2 | 3 | 84.9 | inactive
POLA1 | 1 | 88.6 | inactive
POLA1 | 1 | 77.6 | active
POLA1 | 2 | 87.4 | inactive
POLA1 | 2 | 74 | active
POLA1 | 3 | 82.2 | inactive
POLA1 | 3 | 91.4 | inactive
